From publication PMC8638261
Results are given in words; binding and its absence hold for the method and conditions named. Some results given as binding are weak or reduced against the parent protein; the word gives no strength.

The chains behind the UniProt entries cited, without tags or fusion partners. Where a name states a change or a piece, a line headed by the entry shows the natural chain unless it says otherwise. Residues count along the entry.
UniProt P11087: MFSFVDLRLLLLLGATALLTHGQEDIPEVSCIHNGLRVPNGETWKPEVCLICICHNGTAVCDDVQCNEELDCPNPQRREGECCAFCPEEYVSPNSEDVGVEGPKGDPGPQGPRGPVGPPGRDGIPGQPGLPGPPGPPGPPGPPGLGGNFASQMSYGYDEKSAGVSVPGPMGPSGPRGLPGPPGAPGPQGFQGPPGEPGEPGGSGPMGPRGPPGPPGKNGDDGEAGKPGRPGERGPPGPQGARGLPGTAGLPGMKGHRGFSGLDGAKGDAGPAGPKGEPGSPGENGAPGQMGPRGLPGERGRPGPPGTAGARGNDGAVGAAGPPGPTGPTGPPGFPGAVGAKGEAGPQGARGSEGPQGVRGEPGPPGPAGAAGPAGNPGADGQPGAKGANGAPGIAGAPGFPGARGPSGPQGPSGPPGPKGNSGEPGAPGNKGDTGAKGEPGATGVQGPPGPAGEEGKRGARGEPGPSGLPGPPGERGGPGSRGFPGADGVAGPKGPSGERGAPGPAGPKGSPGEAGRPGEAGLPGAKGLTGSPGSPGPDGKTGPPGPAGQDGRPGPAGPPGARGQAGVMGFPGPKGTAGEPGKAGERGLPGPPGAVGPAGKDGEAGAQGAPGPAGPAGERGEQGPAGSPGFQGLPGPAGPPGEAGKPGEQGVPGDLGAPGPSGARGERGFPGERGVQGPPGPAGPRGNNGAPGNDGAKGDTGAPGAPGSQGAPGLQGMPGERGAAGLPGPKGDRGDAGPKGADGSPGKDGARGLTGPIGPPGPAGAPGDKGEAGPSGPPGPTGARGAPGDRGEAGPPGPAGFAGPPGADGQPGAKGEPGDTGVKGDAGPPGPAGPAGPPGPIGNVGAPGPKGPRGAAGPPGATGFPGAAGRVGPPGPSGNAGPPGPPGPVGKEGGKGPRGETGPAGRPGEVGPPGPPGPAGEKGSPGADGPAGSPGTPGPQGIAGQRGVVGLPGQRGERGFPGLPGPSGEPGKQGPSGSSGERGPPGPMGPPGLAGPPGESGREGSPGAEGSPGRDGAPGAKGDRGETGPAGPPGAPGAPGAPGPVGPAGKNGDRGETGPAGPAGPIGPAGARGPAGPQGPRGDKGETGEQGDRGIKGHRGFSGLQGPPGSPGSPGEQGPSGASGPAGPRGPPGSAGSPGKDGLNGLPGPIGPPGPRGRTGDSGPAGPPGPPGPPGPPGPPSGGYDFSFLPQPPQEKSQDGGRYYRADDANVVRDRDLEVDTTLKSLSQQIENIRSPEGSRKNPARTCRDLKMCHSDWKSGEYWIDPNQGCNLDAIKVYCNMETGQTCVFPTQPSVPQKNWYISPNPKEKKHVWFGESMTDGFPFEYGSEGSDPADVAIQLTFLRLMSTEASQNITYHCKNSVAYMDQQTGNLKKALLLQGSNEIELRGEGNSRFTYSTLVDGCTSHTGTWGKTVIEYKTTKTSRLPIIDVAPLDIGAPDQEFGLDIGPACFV
UniProt Q01149: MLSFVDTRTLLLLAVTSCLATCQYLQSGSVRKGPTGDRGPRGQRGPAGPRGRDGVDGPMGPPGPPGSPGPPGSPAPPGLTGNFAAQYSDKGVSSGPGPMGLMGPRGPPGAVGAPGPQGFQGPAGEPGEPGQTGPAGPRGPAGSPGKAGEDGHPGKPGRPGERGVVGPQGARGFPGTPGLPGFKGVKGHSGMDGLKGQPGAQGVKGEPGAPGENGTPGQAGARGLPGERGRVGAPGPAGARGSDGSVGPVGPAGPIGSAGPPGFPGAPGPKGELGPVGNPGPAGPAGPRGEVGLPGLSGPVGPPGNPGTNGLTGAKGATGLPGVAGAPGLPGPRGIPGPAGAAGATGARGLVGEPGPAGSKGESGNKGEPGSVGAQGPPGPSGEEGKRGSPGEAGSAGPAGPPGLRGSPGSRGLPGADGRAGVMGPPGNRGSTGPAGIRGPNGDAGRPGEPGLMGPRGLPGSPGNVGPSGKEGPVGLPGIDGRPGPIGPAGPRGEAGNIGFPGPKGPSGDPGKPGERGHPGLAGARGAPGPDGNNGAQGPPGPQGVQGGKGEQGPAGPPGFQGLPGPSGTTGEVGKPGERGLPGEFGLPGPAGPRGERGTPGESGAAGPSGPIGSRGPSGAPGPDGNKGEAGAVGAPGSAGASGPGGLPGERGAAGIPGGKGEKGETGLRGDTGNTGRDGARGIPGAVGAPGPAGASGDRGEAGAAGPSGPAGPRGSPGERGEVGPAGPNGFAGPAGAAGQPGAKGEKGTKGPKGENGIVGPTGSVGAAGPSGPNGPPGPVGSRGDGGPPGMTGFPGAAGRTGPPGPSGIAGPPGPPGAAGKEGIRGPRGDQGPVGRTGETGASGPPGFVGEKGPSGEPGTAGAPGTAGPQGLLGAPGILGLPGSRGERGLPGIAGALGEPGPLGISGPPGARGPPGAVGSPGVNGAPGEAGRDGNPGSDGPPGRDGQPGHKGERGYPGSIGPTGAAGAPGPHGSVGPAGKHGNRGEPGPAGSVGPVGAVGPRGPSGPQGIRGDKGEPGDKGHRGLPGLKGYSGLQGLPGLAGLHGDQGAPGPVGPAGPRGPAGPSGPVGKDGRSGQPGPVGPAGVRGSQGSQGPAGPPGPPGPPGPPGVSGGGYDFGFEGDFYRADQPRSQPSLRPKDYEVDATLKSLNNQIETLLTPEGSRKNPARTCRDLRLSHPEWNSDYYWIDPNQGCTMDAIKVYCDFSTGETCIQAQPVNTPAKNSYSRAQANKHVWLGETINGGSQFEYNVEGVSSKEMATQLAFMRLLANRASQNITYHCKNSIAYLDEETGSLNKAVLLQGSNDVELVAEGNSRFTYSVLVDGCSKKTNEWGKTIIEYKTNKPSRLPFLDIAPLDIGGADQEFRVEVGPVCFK
UniProt P02769, residues 25-607: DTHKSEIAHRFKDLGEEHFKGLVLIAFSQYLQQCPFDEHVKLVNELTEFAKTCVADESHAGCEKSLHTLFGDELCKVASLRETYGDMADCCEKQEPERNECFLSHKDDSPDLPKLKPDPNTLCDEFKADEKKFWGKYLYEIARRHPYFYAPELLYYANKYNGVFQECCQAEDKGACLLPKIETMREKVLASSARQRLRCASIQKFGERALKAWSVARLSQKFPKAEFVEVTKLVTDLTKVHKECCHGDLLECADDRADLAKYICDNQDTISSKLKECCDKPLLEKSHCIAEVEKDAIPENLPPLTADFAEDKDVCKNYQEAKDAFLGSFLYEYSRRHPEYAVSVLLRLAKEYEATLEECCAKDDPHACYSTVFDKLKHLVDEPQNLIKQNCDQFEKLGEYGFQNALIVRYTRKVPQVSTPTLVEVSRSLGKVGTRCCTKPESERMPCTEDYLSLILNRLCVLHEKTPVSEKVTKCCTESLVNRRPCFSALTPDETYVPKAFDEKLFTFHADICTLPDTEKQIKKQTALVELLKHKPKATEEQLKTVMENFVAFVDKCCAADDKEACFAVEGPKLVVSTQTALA

Biological target: Collagen type I (mouse) (UniProt P11087+Q01149)
Assay: surface force apparatus; collagen I-coated mica surfaces; albumin (11 mg/mL) or γ-globulin (7 mg/mL) injected and left to adsorb for 36 min, PBS pH 7.4, 25 °C; thickness of the adsorbed layer from the shift of the hard wall; both purified

binding: binds
Substance: Bovine serum albumin (from UniProt P02769 25-607)
